In article PMC6631887, “In vitro and in vivo characterization of anti-malarial acylphenoxazine derivatives prepared from basic blue 3” (Malaria Journal, 2019):

Columns and labels:
HEK293T cells = assay: Cytotoxic assay (Cell Counting Kit-8), HEK293T; format: cell-based, human; details: for SI HEK293T / 3D7: SI = mean CC50 (HEK293T)/mean IC50 (3D7); for SI HEK293T / MRA-1239: SI = mean CC50 (HEK293T)/mean IC50 (MRA-1239); for SI HEK293T / MRA-1240: SI = mean CC50 (HEK293T)/mean IC50 (MRA-1240); for SI HEK293T / W2: SI = mean CC50 (HEK293T)/mean IC50 (W2); for SI for HEK293T cells (text, all strains and isolates): SI = mean CC50/mean IC50
Method: (§1) HepG2 (JCRB1054) and HEK293T cell lines were obtained from the Japanese Collection of Research Bioresources (JCRB, Osaka, Japan) and Prof. Yoshiharu Matsuura (Osaka University, Osaka, Japan), respectively. The cells were cultured in Dulbecco’s modified Eagle’s medium (DMEM (1.0 g/L glucose) with L-glutamine and sodium pyruvate; Nacalai Tesque, Kyoto, Japan) supplemented with 10% (v/v) fetal bovine serum (FBS; Gibco-BRL, Grand Island, NY, USA) in a humidified incubator with 5% CO2 at 37 °C. For the cytotoxic assay, the cells (5 × 10^3/well) were seeded in a 96-well plate. […] Cell viability was measured using a Cell Counting Kit-8 (Dojindo) according to the manufacturer’s instructions. Briefly, 10 µL CCK-8 reagent was added to each well containing culture medium and incubated for 2 h under standard culture conditions. The absorbance of the sample was measured at 450 nm using a PowerWave HT microplate spectrophotometer (BioTek Instruments, Winooski, VT, USA). The cell viability was expressed as a percentage of the absorbance of the untreated control cells after subtracting the appropriate background intensity. The CC50 (mean ± SEM) was calculated as described in IC50. The SI, which is the ratio between the cytotoxicity and anti-malarial activity, was calculated according to the following equation. SI=mean CC50/mean IC50.

HepG2 cells = assay: Cytotoxic assay (Cell Counting Kit-8), HepG2; format: cell-based, human; details: for SI HepG2 / MRA-1239: SI = mean CC50 (HepG2)/mean IC50 (MRA-1239); for SI HepG2 / MRA-1240: SI = mean CC50 (HepG2)/mean IC50 (MRA-1240); for SI HepG2 / 3D7: SI = mean CC50 (HepG2)/mean IC50 (3D7); for SI HepG2 / W2: SI = mean CC50 (HepG2)/mean IC50 (W2); for SI for HepG2 cells (text, all strains and isolates): SI = mean CC50/mean IC50
Method: as §1

Compound: CCN(CC)c1ccc2c(c1)Oc1cc(N(CC)CC)ccc1N2C(C)=O [ITT-001, 1-(3,7-Bis(diethylamino)-10H-phenoxazin-10-yl)ethanone]
- SI HEK293T / 3D7 (HEK293T cells): 28.6
- SI HEK293T / MRA-1239 (HEK293T cells): 9.2
- SI HEK293T / MRA-1240 (HEK293T cells): 8.2
- SI HEK293T / W2 (HEK293T cells): 28.8
- SI HepG2 / MRA-1239 (HepG2 cells): 90.1
- SI HepG2 / MRA-1240 (HepG2 cells): 12.6

Compound: CCN(CC)c1ccc2c(c1)Oc1cc(N(CC)CC)ccc1N2C(=O)C(C)(C)C [ITT-002, 1-(3,7-Bis(diethylamino)-10H-phenoxazin-10-yl)-2,2-dimethylpropan-1-one]
- SI HEK293T / 3D7 (HEK293T cells): 18.7
- SI HEK293T / MRA-1239 (HEK293T cells): 9.7
- SI HEK293T / MRA-1240 (HEK293T cells): 8.2
- SI HEK293T / W2 (HEK293T cells): 19.2
- SI HepG2 / 3D7 (HepG2 cells): > 4672.9
- SI HepG2 / MRA-1239 (HepG2 cells): > 2415.5
- SI HepG2 / MRA-1240 (HepG2 cells): > 2049.2
- SI HepG2 / W2 (HepG2 cells): > 4807.7

Compound: CCN(CC)c1ccc2c(c1)Oc1cc(N(CC)CC)ccc1N2C(=O)C1CC1 [ITT-003]
- SI HEK293T / 3D7 (HEK293T cells): 938.8
- SI HEK293T / MRA-1239 (HEK293T cells): 369.5
- SI HEK293T / MRA-1240 (HEK293T cells): 293.9
- SI HEK293T / W2 (HEK293T cells): 958.3
- SI for HEK293T cells (text, all strains and isolates) (HEK293T cells): > 290
- SI HepG2 / 3D7 (HepG2 cells): > 5102.0
- SI HepG2 / MRA-1239 (HepG2 cells): > 2008.0
- SI HepG2 / MRA-1240 (HepG2 cells): > 1597.4
- SI HepG2 / W2 (HepG2 cells): > 5208.3
- SI for HepG2 cells (text, all strains and isolates) (HepG2 cells): > 1500

Compound: CCN(CC)c1ccc2c(c1)Oc1cc(N(CC)CC)ccc1N2C(=O)c1ccccc1 [ITT-004, (3,7-Bis(diethylamino)-10H-phenoxazin-10-yl)(phenyl)methanone]
- SI HEK293T / 3D7 (HEK293T cells): 929.2
- SI HEK293T / MRA-1239 (HEK293T cells): 397.7
- SI HEK293T / MRA-1240 (HEK293T cells): 344.3
- SI HEK293T / W2 (HEK293T cells): 853.7
- SI for HEK293T cells (text, all strains and isolates) (HEK293T cells): > 290
- SI HepG2 / 3D7 (HepG2 cells): > 4424.8
- SI HepG2 / MRA-1239 (HepG2 cells): > 1893.9
- SI HepG2 / MRA-1240 (HepG2 cells): > 1639.3
- SI HepG2 / W2 (HepG2 cells): > 4065.0
- SI for HepG2 cells (text, all strains and isolates) (HepG2 cells): > 1500

Compound: CCN(CC)CC(=O)N1c2ccc(N(CC)CC)cc2Oc2cc(N(CC)CC)ccc21.Cl [ITT-005, 1-(3,7-Bis(diethylamino)-10H-phenoxazin-10-yl)-2-(diethylamino)ethanone hydrochloride]
- SI HEK293T / 3D7 (HEK293T cells): 5.3
- SI HEK293T / MRA-1239 (HEK293T cells): 5.6
- SI HEK293T / MRA-1240 (HEK293T cells): 4.0
- SI HEK293T / W2 (HEK293T cells): 5.0
- SI HepG2 / 3D7 (HepG2 cells): 33.2
- SI HepG2 / MRA-1239 (HepG2 cells): 35.3
- SI HepG2 / MRA-1240 (HepG2 cells): 25.0
- SI HepG2 / W2 (HepG2 cells): 31.6

Compound: CCN(CC)c1ccc2c(c1)Oc1cc(N(CC)CC)ccc1N2C(=O)c1ccc(F)cc1 [ITT-006, (3,7-Bis(diethylamino)-10H-phenoxazin-10-yl)(4-fluorophenyl)methanone]
- SI HEK293T / 3D7 (HEK293T cells): 1283.0
- SI HEK293T / MRA-1239 (HEK293T cells): 494.5
- SI HEK293T / MRA-1240 (HEK293T cells): 462.6
- SI HEK293T / W2 (HEK293T cells): 850.0
- SI for HEK293T cells (text, all strains and isolates) (HEK293T cells): > 290
- SI HepG2 / MRA-1239 (HepG2 cells): > 1818.2
- SI HepG2 / MRA-1240 (HepG2 cells): > 1700.7
- SI HepG2 / W2 (HepG2 cells): > 3125.0
- SI for HepG2 cells (text, all strains and isolates) (HepG2 cells): > 1500

Compound: CCN(CC)c1ccc2nc3ccc(=[N+](CC)CC)cc-3oc2c1 [basic blue 3]
- SI HEK293T / 3D7 (HEK293T cells): 6.6
- SI HEK293T / MRA-1239 (HEK293T cells): 4.0
- SI HEK293T / MRA-1240 (HEK293T cells): 3.6
- SI HEK293T / W2 (HEK293T cells): 4.4
- SI HepG2 / 3D7 (HepG2 cells): 312.5
- SI HepG2 / MRA-1239 (HepG2 cells): 192.3
- SI HepG2 / MRA-1240 (HepG2 cells): 169.5
- SI HepG2 / W2 (HepG2 cells): 208.3
